In test [1] the target is GS::RPM-1 (wild-type RPM-1 fused to a protein G::Streptavidin binding peptide (GS) affinity tag) (C. elegans) (UniProt Q17551). The test can be described thus: affinity purification with mass spectrometry; GS-tagged baits (GS::RPM-1, GS::RPM-1 LD, GS::GFP) from transgenic mixed-stage C. elegans; cryomilled, lysed under varying detergent conditions; whole animal lysate (80 mg total protein) on IgG coupled Dynabeads, 4 h, 4°C; LC-MS/MS; 7 independent experiments.

Amino acid sequences for entries named in this document (tags omitted).
UniProt Q17551: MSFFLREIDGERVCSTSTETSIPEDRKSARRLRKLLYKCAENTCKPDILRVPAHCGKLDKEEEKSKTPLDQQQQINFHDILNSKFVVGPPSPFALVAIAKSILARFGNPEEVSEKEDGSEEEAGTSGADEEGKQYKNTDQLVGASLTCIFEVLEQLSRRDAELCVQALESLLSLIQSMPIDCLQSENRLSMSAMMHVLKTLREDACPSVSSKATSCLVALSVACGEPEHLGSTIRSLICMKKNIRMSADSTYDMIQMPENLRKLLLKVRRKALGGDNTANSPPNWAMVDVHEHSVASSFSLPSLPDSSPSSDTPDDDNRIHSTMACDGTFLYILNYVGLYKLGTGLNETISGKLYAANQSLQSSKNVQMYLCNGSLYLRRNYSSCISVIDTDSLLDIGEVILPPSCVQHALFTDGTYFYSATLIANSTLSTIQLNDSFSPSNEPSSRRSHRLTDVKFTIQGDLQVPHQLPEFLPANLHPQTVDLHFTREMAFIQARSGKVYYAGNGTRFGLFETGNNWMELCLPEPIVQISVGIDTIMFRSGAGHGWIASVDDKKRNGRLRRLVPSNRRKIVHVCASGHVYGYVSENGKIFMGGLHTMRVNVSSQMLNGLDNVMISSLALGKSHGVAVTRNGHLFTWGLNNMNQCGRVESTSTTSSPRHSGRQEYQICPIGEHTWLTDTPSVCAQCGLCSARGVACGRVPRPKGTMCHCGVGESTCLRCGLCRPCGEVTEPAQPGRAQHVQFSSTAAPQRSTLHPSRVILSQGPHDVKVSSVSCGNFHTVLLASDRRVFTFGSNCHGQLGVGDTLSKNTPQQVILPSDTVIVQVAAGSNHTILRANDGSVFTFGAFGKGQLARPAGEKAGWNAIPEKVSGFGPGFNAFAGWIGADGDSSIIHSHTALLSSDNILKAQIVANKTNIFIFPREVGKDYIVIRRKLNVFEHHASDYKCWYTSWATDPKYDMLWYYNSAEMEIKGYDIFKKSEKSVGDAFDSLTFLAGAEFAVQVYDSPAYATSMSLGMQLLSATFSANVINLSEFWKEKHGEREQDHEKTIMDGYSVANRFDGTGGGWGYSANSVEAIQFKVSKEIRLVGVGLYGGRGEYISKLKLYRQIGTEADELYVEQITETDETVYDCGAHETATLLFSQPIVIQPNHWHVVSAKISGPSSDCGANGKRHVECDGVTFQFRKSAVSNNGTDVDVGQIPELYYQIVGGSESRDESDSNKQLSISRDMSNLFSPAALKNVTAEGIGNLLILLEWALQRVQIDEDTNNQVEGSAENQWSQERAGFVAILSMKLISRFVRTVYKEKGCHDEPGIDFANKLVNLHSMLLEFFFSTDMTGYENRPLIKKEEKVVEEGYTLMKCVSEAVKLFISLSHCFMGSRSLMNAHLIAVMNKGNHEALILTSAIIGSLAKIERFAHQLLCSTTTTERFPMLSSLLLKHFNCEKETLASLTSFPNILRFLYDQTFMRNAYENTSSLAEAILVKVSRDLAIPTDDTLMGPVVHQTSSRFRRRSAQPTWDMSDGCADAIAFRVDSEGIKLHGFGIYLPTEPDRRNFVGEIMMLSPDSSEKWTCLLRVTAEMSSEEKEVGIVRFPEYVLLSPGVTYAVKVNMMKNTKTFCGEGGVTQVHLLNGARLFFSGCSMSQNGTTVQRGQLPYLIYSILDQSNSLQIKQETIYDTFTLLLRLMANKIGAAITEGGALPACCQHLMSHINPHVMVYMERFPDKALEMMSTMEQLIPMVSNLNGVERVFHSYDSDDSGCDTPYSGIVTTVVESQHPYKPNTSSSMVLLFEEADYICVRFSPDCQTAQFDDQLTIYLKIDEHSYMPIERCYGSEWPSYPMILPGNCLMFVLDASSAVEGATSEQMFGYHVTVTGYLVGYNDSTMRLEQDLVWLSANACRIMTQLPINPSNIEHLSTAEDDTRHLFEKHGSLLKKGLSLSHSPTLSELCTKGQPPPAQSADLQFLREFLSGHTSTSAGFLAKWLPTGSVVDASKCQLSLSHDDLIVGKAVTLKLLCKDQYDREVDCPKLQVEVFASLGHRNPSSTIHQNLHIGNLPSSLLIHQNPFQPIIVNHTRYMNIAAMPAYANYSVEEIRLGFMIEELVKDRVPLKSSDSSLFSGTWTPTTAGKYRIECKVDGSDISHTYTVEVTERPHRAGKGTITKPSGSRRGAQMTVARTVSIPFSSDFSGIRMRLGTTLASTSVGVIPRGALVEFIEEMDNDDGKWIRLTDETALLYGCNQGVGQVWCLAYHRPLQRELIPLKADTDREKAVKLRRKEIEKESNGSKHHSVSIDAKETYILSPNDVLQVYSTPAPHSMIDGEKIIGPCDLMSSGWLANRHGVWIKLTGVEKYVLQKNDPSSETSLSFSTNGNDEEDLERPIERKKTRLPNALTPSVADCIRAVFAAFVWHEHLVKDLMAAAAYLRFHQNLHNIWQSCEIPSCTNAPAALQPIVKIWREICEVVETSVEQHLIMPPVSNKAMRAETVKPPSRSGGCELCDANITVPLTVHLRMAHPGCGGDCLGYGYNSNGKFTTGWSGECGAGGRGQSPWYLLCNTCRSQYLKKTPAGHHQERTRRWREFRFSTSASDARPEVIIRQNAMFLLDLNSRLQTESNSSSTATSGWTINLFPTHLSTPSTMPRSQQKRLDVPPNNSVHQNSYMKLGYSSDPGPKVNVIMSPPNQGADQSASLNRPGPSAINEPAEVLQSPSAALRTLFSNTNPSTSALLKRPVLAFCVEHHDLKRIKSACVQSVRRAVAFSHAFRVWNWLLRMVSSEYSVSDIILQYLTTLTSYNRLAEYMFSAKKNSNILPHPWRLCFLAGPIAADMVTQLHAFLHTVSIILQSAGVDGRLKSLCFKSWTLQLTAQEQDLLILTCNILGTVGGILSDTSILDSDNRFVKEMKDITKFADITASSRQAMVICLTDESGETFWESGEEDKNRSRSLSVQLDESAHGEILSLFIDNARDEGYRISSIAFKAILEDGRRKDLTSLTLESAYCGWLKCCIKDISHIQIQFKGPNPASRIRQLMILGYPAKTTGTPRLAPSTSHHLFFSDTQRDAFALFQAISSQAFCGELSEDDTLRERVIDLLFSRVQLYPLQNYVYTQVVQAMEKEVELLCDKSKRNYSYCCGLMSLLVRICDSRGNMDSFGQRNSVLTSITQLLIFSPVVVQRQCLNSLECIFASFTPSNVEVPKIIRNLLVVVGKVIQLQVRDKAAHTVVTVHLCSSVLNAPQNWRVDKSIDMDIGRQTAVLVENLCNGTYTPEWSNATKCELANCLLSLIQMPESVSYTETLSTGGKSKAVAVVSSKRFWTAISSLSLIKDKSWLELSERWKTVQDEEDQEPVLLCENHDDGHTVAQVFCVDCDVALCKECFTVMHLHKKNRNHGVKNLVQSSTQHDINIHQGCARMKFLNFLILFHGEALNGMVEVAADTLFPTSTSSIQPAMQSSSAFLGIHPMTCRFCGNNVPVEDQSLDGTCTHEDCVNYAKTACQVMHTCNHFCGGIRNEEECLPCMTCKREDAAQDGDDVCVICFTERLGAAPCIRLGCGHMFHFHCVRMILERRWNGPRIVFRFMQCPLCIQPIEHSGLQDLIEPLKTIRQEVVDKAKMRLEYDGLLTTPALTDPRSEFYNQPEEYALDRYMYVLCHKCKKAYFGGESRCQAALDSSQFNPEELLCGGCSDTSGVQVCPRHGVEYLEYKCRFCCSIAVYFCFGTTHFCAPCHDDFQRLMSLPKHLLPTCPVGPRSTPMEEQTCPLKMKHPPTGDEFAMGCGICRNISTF
UniProt G5ECH7: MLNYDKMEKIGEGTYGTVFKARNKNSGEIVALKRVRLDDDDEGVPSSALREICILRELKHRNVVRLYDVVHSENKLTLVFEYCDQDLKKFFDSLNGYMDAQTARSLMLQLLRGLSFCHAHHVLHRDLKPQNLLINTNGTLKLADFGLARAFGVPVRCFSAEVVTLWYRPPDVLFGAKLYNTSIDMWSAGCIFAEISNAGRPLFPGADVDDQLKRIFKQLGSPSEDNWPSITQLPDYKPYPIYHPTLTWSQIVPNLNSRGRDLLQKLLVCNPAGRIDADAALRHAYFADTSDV
UniProt G5ECU1: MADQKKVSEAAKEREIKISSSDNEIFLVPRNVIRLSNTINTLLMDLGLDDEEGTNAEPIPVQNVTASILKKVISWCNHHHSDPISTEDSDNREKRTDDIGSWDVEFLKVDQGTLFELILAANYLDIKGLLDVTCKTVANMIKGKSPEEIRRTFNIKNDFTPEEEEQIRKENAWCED

In test [2] the target is GS::RPM-1 LD (RPM-1 ubiquitin ligase dead substrate trap fused to the GS affinity tag) (C. elegans) (UniProt Q17551). The description is as above.

Experimental findings from publication PMC9041834 are described below.

These are yes or no findings as the source states them, for the method shown. Binding seen in cells or lysates may run through a third protein. These calls come from enrichment with a bait or labelling near it, and not all partners need be listed. For part of these data: No binding means not detected with the bait.

As for “CDK-5 (from UniProt G5ECH7 1-292) (enzyme)”, the binding result in test [1] was “no binding”.
As for SKR-1(SKP1) (from UniProt G5ECU1 1-176), the binding entry in test [2] and in test [1] was “binds” each time.
